Consider 42 sequences from article PMC7819943, “Rice protein-binding microarrays: a tool to detect cis-acting elements near promoter regions in rice”.

The chains behind the UniProt entries cited, without tags or fusion partners.
UniProt Q0JBA9, entry or part of it: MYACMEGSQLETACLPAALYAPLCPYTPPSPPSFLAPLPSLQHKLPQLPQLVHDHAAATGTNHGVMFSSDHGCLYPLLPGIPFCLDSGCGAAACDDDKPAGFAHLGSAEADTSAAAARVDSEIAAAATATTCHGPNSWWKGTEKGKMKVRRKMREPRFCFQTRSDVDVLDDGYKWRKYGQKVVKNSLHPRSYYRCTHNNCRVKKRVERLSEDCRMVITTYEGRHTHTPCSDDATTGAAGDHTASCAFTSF

The list shows a part of the results.

This assay deals with OsWRKY34 (Oryza sativa, UniProt Q0JBA9 1-250). Description: protein-binding microarray (RPBM); PBS, 2% BSA, 51.3 ng/ul salmon testes DNA, 50 uM zinc acetate, 200 nM TF, 25 C, 1 h; high values mean tight binding. Conditions: protein: recombinant; tags: N-terminal polyhistidine and DsRed monomer fusion (pET32a); label: CyDye5-dUTP incorporated in the synthesized complementary strand; 3' TTTTT single-stranded linker to array surface; dsDNA, one strand shown. The method in brief: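 Transcription factors, each fused N-terminally to a polyhistidine tag and DsRed, were expressed in E. coli BL21-CodonPlus and purified on Ni–NTA. A custom Agilent array was made double-stranded by primer extension with Cy5-dUTP and blocked with 2% BSA. It was incubated with 200 nM protein in PBS, 2% BSA, salmon testes DNA and 50 µM zinc acetate at 25 °C for 1 h, then washed. The binding signal is per-feature fluorescence intensity (arbitrary units) read on an Axon 4000B scanner.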
Take “CACCACCGCCTCTCTCTCCCCGCCTCTCGCCTATAAATACCGGAGTCACCTAGTGCAG”: the binding signal is 8580 fluorescence intensity (a.u.).
With “CGCGCCCACCAGTCCACTCACGCGGTCACTCTCCTCCAGTCGGAGTCACCTAGTGCAG” the figure was 8140 fluorescence intensity (a.u.); with “GCCTCACCTCATCTTTTATTTTTATTTTAATTTTTAATTTCGGAGTCACCTAGTGCAG”, 11900 fluorescence intensity (a.u.); with “CTAACTAAACCCACCCCTATTTACTGCAACACATATTTTACGGAGTCACCTAGTGCAG”, 9360 fluorescence intensity (a.u.).
Consider “CCTCACCTCCGCCGCCTCCAAACCCTAACCCGCGCGCTCGCGGAGTCACCTAGTGCAG”, for which the binding signal was 10700 fluorescence intensity (a.u.).
With “TATCGACCGTGAATATTTTATCTCCTTTCCTATTGACACTCGGAGTCACCTAGTGCAG” the figure was 9840 fluorescence intensity (a.u.).
With “TGCAAGATGTAGGTGGTGTTTGAATAGATGATGAAGATGACGGAGTCACCTAGTGCAG” the figure was 8090 fluorescence intensity (a.u.); with “TCTTTCCTTTTTTCCGTCGATTCACCATTGTTGCTTGGGGCGGAGTCACCTAGTGCAG”, 8310 fluorescence intensity (a.u.); with “GTTAGCGTTTTATGCATACCATTTTAATACTTCAATTCAACGGAGTCACCTAGTGCAG”, 8200 fluorescence intensity (a.u.).
In the case of “TGGTTGGTTTGACGCTACACGGTTGGTGTGCAGGTCTGCGCGGAGTCACCTAGTGCAG”, the binding signal is 8870 fluorescence intensity (a.u.).
For the sequence “CGCCGCCACCACCGCCACGGCGCCACCGCCGCCGCCGCCACGGAGTCACCTAGTGCAG”, the binding signal was 8570 fluorescence intensity (a.u.).
Turning to “ACTTTCAGGCCTCATAACTGTGCCAGTGACGACAACAGATCGGAGTCACCTAGTGCAG”, the binding signal is 8430 fluorescence intensity (a.u.).
With “CAAAATAACCAGTGCTCAAATGCCACTCTCCCAAATTTTCCGGAGTCACCTAGTGCAG” the figure was 8820 fluorescence intensity (a.u.); with “TCCTTATATAAAGCCATGCGCTCCCACCGCTTCTTAACATCGGAGTCACCTAGTGCAG”, 9060 fluorescence intensity (a.u.); with “AGTAGTATAGGGGAGAGGGTGGGCGGGTGATCGCTGGGCGCGGAGTCACCTAGTGCAG”, 16200 fluorescence intensity (a.u.).
Consider “ATGAATTGCTGCCCTGTGAATTTGTCCTGGACTTACCTTCCGGAGTCACCTAGTGCAG”, for which the binding signal is 10100 fluorescence intensity (a.u.).
For “CAACAGTGCCAATTGCAATTGCCATCATTCTTTACTGTCACGGAGTCACCTAGTGCAG”, the binding signal is 9900 fluorescence intensity (a.u.).
In the case of “TGGACCAGTTTATGTTGCATTTTTTAAAAACACCTGTTTACGGAGTCACCTAGTGCAG”, the binding signal was 8710 fluorescence intensity (a.u.).
With “AATCACACTACCATCCGTTGTAAAGGCTGGCGCACCCTGACGGAGTCACCTAGTGCAG” the figure was 8300 fluorescence intensity (a.u.); with “TTTGCATAGGAATATAGTCTTCTAGCTTTTGCTTGTTTAACGGAGTCACCTAGTGCAG”, 8200 fluorescence intensity (a.u.); with “GTTTATGTTTGTTTCTCTTCATTACCAGTAGTAGCAACTACGGAGTCACCTAGTGCAG”, 9630 fluorescence intensity (a.u.).
The result for “ATTCGGTTGATTATTATCTCTGCTTGACTAATACTACTCACGGAGTCACCTAGTGCAG” reads 10100 fluorescence intensity (a.u.).
With “GTGCTCGATGCTCGATGCCCTCCTTTTCCGCCATCTTTTTCGGAGTCACCTAGTGCAG” the figure was 10200 fluorescence intensity (a.u.).
Turning to “ACAACCCTCTTCCAATCATTTCTACCTACTTTCTTAATACCGGAGTCACCTAGTGCAG”, the binding signal was 8460 fluorescence intensity (a.u.).
Regarding “AATATTGTGTGTTGTTGTGTTGTCATCTGATATATTTTAGCGGAGTCACCTAGTGCAG”, the binding signal was 10400 fluorescence intensity (a.u.).
With “TCATACTTCCATATCTTATTCCACACTTGGTTGTAGTTTTCGGAGTCACCTAGTGCAG”, the binding signal is 9010 fluorescence intensity (a.u.).
As for “TATGGTATTTGGGTTAAAGAACGAAAATCGAACTCGCTGTCGGAGTCACCTAGTGCAG”, the binding signal was 8160 fluorescence intensity (a.u.).
With “CGATCGATCACTACACCTTCACTTTCTCTTCTCATCATCTCGGAGTCACCTAGTGCAG” the figure was 11100 fluorescence intensity (a.u.); with “TGCTTAGTTGCCCTACAACCTTTTTACAGGCTATATTTATCGGAGTCACCTAGTGCAG”, 8110 fluorescence intensity (a.u.); with “GGCATCCATCCTTTCTATGGTGATCTTCTTCATGTTCTGTCGGAGTCACCTAGTGCAG”, 11200 fluorescence intensity (a.u.).
The result for “ATTTCGTTCTCATCAGAGTGCACTACCCCTGTTTGACATGCGGAGTCACCTAGTGCAG” reads 8220 fluorescence intensity (a.u.).
In the case of “GCTTAGATACCACACTAATCGACATTCAACACATGTATTTCGGAGTCACCTAGTGCAG”, the binding signal was 9670 fluorescence intensity (a.u.).
In the case of “GCCTCCCCTCATCCACACCAACCATCTGCGCTGCGCTCCGCGGAGTCACCTAGTGCAG”, the binding signal is 8510 fluorescence intensity (a.u.).
As for “GGTAGTGGATGTTGTTTTGCGAAAAAGCCCCTCGTCTTCCCGGAGTCACCTAGTGCAG”, the binding signal was 9540 fluorescence intensity (a.u.).
With “GCAGGTGTCCAGCCCAAGCGGTGGCCGTTGACCAGGGCGCCGGAGTCACCTAGTGCAG” the figure was 10600 fluorescence intensity (a.u.).
The result for “GGAGAGGGAGCGGGAGAGGGAGGATTGGAGGATGTGGGGACGGAGTCACCTAGTGCAG” reads 8940 fluorescence intensity (a.u.); that for “TCCTTAGCTCCGCGGATTTGTTCACCATCACCACCATCACCGGAGTCACCTAGTGCAG”, 8780 fluorescence intensity (a.u.).
As to “CCCGAACAGCCACCGCCGCCGCCGCCGCCGCCGATCCATGCGGAGTCACCTAGTGCAG”, the binding signal is 10100 fluorescence intensity (a.u.).
As for “GTTGTCGCCGCCGCCATGCTTTCGCTCGCCACCTCCTCCACGGAGTCACCTAGTGCAG”, the binding signal is 9140 fluorescence intensity (a.u.).
On to “ACATGCAACAGTGTGTCGTGCTTGTATTTCTGTTATCTGACGGAGTCACCTAGTGCAG”, for which the binding signal was 8660 fluorescence intensity (a.u.).
Turning to “AGGAGAGTCTCGTCCCATTCGGATGCCCTAGCTCAAGTCCCGGAGTCACCTAGTGCAG”, the binding signal is 8310 fluorescence intensity (a.u.).
The result for “GGTGTTTTTTTACCCTTTATTCCTTTATATTTATATAACACGGAGTCACCTAGTGCAG” reads 9990 fluorescence intensity (a.u.).
